The target of assay [1] is T1, GFP-USP29 (ubiquitin-specific protease 29), wild type (UniProt Q9HBJ7).
T1 sequence: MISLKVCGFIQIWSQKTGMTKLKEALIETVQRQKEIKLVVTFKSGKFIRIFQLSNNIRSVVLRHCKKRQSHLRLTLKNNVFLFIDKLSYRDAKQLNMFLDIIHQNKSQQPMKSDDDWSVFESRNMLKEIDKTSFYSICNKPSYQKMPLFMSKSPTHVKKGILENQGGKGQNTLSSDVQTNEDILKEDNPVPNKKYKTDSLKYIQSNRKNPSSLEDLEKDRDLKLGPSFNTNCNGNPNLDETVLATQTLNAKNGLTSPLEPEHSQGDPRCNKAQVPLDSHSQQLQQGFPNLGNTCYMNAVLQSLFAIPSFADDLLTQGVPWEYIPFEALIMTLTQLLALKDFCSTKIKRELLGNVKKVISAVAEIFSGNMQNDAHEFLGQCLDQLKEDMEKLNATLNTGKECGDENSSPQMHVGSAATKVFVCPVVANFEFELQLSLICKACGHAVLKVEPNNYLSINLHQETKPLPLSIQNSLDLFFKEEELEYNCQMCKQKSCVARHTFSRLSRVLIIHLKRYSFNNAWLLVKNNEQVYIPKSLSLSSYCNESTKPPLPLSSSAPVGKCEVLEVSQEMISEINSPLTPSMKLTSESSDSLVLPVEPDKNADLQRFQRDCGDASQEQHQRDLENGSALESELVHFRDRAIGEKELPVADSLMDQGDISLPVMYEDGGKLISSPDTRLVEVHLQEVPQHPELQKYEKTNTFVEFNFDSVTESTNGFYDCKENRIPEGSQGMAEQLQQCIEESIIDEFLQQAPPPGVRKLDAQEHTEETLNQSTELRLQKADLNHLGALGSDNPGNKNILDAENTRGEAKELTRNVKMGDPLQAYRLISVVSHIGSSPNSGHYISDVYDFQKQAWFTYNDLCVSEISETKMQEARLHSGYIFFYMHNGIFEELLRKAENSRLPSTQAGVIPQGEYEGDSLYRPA
In words: co-IP; HEK293 cells co-transfected with Myc-Cdc25A and GFP-USP29 for 48 h; lysed in RIPA buffer (50 mM Tris pH 7.6, 150 mM NaCl, 2 mM EDTA, 1% Triton X-100, 0.1% SDS, 1 mM PMSF); IP with anti-Myc or anti-GFP overnight at 4 °C, protein A/G Sepharose beads; Western blot with the reciprocal antibody.

For assay [2], the target named is T2, Myc-Cdc25A (cell division cycle 25A) (UniProt P30304).
T2 sequence: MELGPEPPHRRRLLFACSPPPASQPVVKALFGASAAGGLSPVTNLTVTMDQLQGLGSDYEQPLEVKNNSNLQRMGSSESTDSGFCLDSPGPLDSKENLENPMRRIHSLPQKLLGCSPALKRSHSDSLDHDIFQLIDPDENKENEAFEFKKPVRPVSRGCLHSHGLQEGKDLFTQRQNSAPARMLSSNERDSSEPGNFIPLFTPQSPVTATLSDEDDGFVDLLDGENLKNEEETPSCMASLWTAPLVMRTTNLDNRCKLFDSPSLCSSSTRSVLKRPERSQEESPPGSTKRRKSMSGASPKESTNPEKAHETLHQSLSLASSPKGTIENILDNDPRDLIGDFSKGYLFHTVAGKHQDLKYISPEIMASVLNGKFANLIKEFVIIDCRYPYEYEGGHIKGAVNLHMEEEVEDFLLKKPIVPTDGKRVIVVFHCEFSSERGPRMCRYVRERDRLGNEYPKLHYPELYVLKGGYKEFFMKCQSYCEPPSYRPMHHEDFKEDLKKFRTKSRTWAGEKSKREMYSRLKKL
The description is as above.

These are yes or no findings as the source states them, for the method shown. Binding seen in cells or lysates may run through a third protein. Some binding calls cover weakened binding; strength is not graded here. Sequences can lack the tags named with a protein.

B1: Myc-Cdc25A (cell division cycle 25A) (protein, UniProt P30304 1-524)
chain: T2 sequence
As for B1, the binding entry in assay [1] is reported as “binds”.

B2: GFP-USP29 (ubiquitin-specific protease 29), wild type (enzyme, UniProt Q9HBJ7 1-922)
chain: T1 sequence
As to B2, the binding result in assay [2] is “binds”.

These data come from PMC8198132.
